Tested on: streptavidin
Experiment: FRET titration of streptavidin-bound F2FlAsH-P12-biotin with F4FlAsH-P12-biotin
Settings: donor F2FlAsH-biotin-P12 on streptavidin, acceptor F4FlAsH peptide, at saturation of free sites

`O=C1OC2(c3ccccc31)c1cc(F)c(O)c([As]3SCCS3)c1Oc1c2cc(F)c(O)c1[As]1SCCS1` [F2FlAsH, 4′,5′-Bis(1,2,3-dithioarsolan-2-yl)-2′,7′-difluorofluorescein] was tested, and the FRET efficiency was 0.34.

Source: patent US20090098596A1, “PHOTOSTABLE FRET-COMPETENT BIARSENICAL-TETRACYSTEINE PROBES BASED ON FLUORINATED FLUORESCEINS” (priority 2006, published 2009)
